Experimental data as given in the supplement of paper PMC4371806.
Whole data set: some 2,300 compounds, median “plate-normalized OD600 growth (mean of duplicates)” near 0.29, cut for the lowest 2% near 0.22. The list shows a part of the results.

Test system: Escherichia coli BW25113
Experiment: plate-normalized OD600 growth (mean of duplicates) (OD600 (normalized)); higher = more growth (less inhibition)
Settings: 10 µM
Protocol: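 E. coli BW25113 in LB (100 µl, 96-well, no shaking) was exposed to 10 µM of each compound from a ~30,000-member library and grown at 37°C for 24 h or 15°C for 48 h, in duplicate. Growth was read as OD600 and the duplicate ODs were normalized across screening plates to correct plate-to-plate variation. Hits were >3σ below the mean OD600 at 15°C and <2σ below the mean at 37°C.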

SMILES | plate-normalized OD600 growth (temperature: 15°C, 48 h) | plate-normalized OD600 growth (temperature: 37°C, 24 h)
COc1nc(N)nc(SC)n1 | 0.303 | 0.665
CC1CCN(C2=NC(=O)/C(=C\c3ccc(Cl)cc3)S2)CC1 | 0.233 | 0.613
COc1cccc(C2C3=C(CC(C)(C)CC3=O)OC(N)=C2[N+](=O)[O-])c1 (stereo unspecified) | 0.246 | 0.619
CC1=C(Br)C(=O)C(C)(Br)C(Br)C1=NS(=O)(=O)c1ccccc1 (stereo unspecified) | 0.24 | 0.623
COc1ccc(-n2c(-c3ccccc3)nnc2-c2ccc(Br)cc2)cc1 | 0.258 | 0.645
O=C(NCC(c1ccccc1)c1ccccc1)c1ccc(C#CC2(O)CCCCC2)cc1 | 0.244 | 0.623
CC(C)(C)OC(=O)C(C)(C)S(=O)(=O)c1ccc(Cl)cc1 | 0.279 | 0.618
Oc1c(Cl)cc(Cl)cc1C=Nc1ccc2c(c1)COCO2 | 0.238 | 0.601
CS/C(N)=N\N=C/c1c(F)cccc1Cl | 0.258 | 0.652
Cc1onc(-c2ccc(Cl)cc2)c1-c1ccnn1C(=O)NC(C)C | 0.256 | 0.633
COc1cccc(C=NC2CCN(Cc3ccccc3)CC2)c1OC | 0.226 | 0.619
COC(=O)c1cccc(Oc2nc(N3CCOCC3)nc(N3CCOCC3)n2)c1 | 0.251 | 0.609
CCOc1cc(/C=N/n2cnc3sc4c(c3c2=O)CCCC4)cc(Br)c1OCc1ccc(Cl)cc1 | 0.245 | 0.619
Cc1ccc(C(=O)c2sc3nc(-c4cccs4)cc(C(F)(F)F)c3c2N)cc1 | 0.239 | 0.623
O=C1C2C3c4ccccc4C(c4ccccc43)C2C(=O)N1c1ccc(F)cc1 (stereo unspecified) | 0.248 | 0.643
CCN1C(=O)CC(C(=O)Nc2ccc(F)cc2)SC1=Nc1cccc(OC)c1 (stereo unspecified) | 0.237 | 0.62
CC(C)=NN(C(=O)c1ccccc1)C(C)(C)C | 0.249 | 0.663
NCCCCCCCNC(=O)c1cc([N+](=O)[O-])ccc1C(=O)O | 0.239 | 0.58
CCC(Cc1ccccc1)NC(=O)C(CC)c1ccc(CC(C)C)cc1 (stereo unspecified) | 0.231 | 0.629
COc1cc2c(cc1OC)CC(=O)OC2 | 0.244 | 0.606
O=C(OC1CCCCC1)c1ccc(NC(=O)c2ccco2)cc1 | 0.262 | 0.611
Nc1nc(=Nc2ccccc2)n2c(n1)sc1ccccc12 | 0.243 | 0.61
Cc1ccc(C=Nc2ccc(-c3ccc(N=Cc4ccc(C)o4)c(C)c3)cc2C)o1 | 0.224 | 0.622
O=C(NCCSC1CCCCC1)c1ccco1 | 0.221 | 0.633

SMILES | plate-normalized OD600 growth (temperature: 15°C, 48 h) | plate-normalized OD600 growth (temperature: 37°C, 24 h)
CCOC(=O)CNc1cccc(C(F)(F)F)c1 | 0.227 | 0.612
CCOc1ccc(NC(=O)CC2S/C(=N\N=C\c3ccc(C)s3)NC2=O)cc1 (stereo unspecified) | 0.222 | 0.624
CC(C)(C)OC(=O)NCc1n[nH]c(=S)n1-c1ccccc1 | 0.242 | 0.609
CSc1nsc(N/N=C(/C)c2ccc(O)c(O)c2)c1C#N | 0.233 | 0.621
CCCS/C(N)=N\N=C\c1cc(C)ccc1O | 0.258 | 0.613
COC(=O)c1cc(OC)c(OC)cc1NC(=O)C1CC1 | 0.254 | 0.611
O=c1[nH]cnc2ccc(NC(=S)NCc3ccco3)cc12 | 0.243 | 0.614
COC(=O)C1(C(F)(F)F)N=C2C=CC(Br)=CN2C(c2ccccc2)=N1 (stereo unspecified) | 0.249 | 0.598
COC(=O)CCC(=O)Nc1cc(Cl)ccc1Cl | 0.245 | 0.604
COC(=O)c1cc(OC)c(OC)cc1NC(=O)Nc1cc(Cl)cc(Cl)c1 | 0.25 | 0.597
N#CCS(=O)(=O)c1cccs1 | 0.217 | 0.626
COC(=O)c1c(OC)ccc(N=CNO)c1OC | 0.247 | 0.621
Brc1cccc(Nc2nc(N/N=C\c3ccc4c(c3)OCO4)nc(N3CCOCC3)n2)c1 | 0.226 | 0.626
COc1ccc(C)c2c1NC(c1ccc(S(=O)(=O)N3CCOCC3)cc1)C1CC=CC21 (stereo unspecified) | 0.264 | 0.62
O=C1CCCC2=C1C(c1cccnc1)CC(=O)N2c1ccc(F)cc1 (stereo unspecified) | 0.27 | 0.635
N#C/C(=C\c1ccc(Oc2ccccc2)nc1)S(=O)(=O)c1ccccc1 | 0.248 | 0.608
Cc1ccsc1/C=N\Nc1nonc1N | 0.245 | 0.658
CCOC(=O)c1ccc2oc3ccc(O)cc3c(=O)c2c1 | 0.258 | 0.61
CCSC1OC(OC=O)C(OC=O)C(OC=O)C1NC=O (stereo unspecified) | 0.256 | 0.619
O=C(NCc1cccnc1)c1cc2ccccc2oc1=O | 0.256 | 0.635
Brc1ccc(C=Nc2ccc(Nc3ccccc3)cc2)s1 | 0.245 | 0.651
COc1cc(NC(=S)N2CCN(c3ccccc3OC)CC2)c(OC)cc1Cl | 0.231 | 0.614
CCOC(=O)NC(=O)c1cn(Nc2ncc(Cl)cc2C(F)(F)F)c(=O)[nH]c1=O | 0.279 | 0.642
CCCCCCc1cc2c(C)cc(=O)oc2cc1O | 0.243 | 0.617

Ordered by SMILES length (ascending): part of the list above
SMILES | plate-normalized OD600 growth (temperature: 15°C, 48 h) | plate-normalized OD600 growth (temperature: 37°C, 24 h)
COC(=O)c1cc(OC)c(OC)cc1NC(=O)C1CC1 | 0.254 | 0.611
CC(C)(C)OC(=O)NCc1n[nH]c(=S)n1-c1ccccc1 | 0.242 | 0.609
CCOc1ccc(NC(=O)CC2S/C(=N\N=C\c3ccc(C)s3)NC2=O)cc1 (stereo unspecified) | 0.222 | 0.624
